The target in this experiment is HAstV1 VP34 (residues V74 to G429) (human astrovirus 1 (HAstV1)) (UniProt O12792). As to the kind of experiment: BLI. (Biolayer interferometry detects binding as a change in optical thickness at a sensor tip.)

Amino acid sequences for entries named in this document (tags omitted). Residues count along the entry.
UniProt O12792, residues 74-429: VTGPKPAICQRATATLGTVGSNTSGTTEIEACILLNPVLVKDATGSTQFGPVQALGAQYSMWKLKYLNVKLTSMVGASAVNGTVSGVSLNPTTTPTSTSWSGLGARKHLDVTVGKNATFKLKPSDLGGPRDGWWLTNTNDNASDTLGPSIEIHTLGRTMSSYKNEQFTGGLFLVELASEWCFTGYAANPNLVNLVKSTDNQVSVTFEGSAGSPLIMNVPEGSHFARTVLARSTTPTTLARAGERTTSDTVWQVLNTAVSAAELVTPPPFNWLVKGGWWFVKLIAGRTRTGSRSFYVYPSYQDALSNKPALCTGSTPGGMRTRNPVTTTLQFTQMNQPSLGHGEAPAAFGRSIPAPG
UniProt P27487, residues 39-766: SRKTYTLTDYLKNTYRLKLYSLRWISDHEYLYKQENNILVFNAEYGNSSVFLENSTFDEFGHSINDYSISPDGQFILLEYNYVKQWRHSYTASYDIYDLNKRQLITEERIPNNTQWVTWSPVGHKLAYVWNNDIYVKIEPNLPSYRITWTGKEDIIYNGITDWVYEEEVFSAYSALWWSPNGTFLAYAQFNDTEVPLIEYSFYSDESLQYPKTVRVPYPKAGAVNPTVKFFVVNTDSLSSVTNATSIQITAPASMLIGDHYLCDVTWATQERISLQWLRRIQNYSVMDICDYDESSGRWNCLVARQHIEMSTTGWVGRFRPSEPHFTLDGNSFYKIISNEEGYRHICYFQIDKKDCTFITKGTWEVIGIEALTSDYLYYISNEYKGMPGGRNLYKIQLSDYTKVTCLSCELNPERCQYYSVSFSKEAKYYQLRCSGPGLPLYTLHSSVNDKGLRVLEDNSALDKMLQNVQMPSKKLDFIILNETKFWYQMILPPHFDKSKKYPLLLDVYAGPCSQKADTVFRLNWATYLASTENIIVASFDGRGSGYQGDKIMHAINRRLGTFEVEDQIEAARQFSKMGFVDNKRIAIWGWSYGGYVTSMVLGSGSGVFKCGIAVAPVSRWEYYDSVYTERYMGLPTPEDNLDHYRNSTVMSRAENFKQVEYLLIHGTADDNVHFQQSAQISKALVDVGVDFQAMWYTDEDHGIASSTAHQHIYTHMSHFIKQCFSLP

These are yes or no findings as the source states them, for the method shown.

As to “soluble extracellular domain of human DPP4 (residues S39-P766) (from UniProt P27487 39-766) (domain or fragment)”, the binding result is “no binding (tested: 1 uM)”.

Source of the values: paper doi:10.1101/2024.07.12.603331.
